Reference: US10071103B2, “Treatments for resistant acne” (VYOME BIOSCIENCES PVT. LTD., priority 2014, dated 2018)
In brackets after ≈: the same amount, converted by molar mass.

What was measured:
[1] = test system: P. acnes MTCC 1951; assay type: cell-based, Propionibacterium acnes
Experimental: 3 to 4 Petri plates containing 48 h P. acnes culture was suspended in sterile Phosphate buffer saline, PBS (pH 7.2) and turbidity was adjusted to optical density of 1 at 600 nm (10^9 cells/ml). 50 ml of this culture suspension was centrifuged at 4000 rpm for 40 min. The supernatant was discarded and pellet resuspended in 250 μl of sterile PBS. 50 μl of these cell suspensions (10^10 cells) was spread over the plates containing various concentrations of antibiotics (around MIC range). Plates were incubated at 37° C. for 48 h and the lowest concentration of the drug that allowed no growth was taken as its MPC. […] If growth was not observed in these plates at the end of the incubation period then the same concentration was confirmed to be the MPC for the said compound.

[2] = test system: P. acnes clinical isolates; assay: MIC of P. acnes isolated from acne patients (clinical isolates); conditions: Cutibacterium acnes, clinical isolate susceptible to clindamycin and erythromycin;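 further: anaerobic 96-well plate assay at 37 °C over 72 h, with Alamar blue dye as read-out; MIC in µg/mL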
[3] = test system: P. acnes MTCC 1951; assay: MIC by micro broth dilution (Alamar blue), clindamycin-susceptible P. acnes; assay type: cell-based, Propionibacterium acnes; conditions: Cutibacterium acnes, MTCC1951; Table 7; against P. acnes
Experimental: (§1) The plates were incubated at 37° C. for 48 h under anaerobic condition for P. acnes and 37° C. for 24 h for S. aureus The plates were read under Bio-Rad plate reader at 595 nm for optical density to generate the dose-response curves. The MIC of the test compound was recorded by addition of Alamar blue dye.
P. acnes (MTCC 3297, MTCC 1951& CCARM 9010) are cultured in Brain Heart Infusion (BHI) Broth at 37° C. for 48-72 h under anaerobic condition. The test compounds/formulations are initially diluted with suitable solvent and further diluted with BHI broth to get the required concentrations. Samples (100 μl) of different concentrations (prepared by serial dilution) are added to 96-well plate. To the wells, 100 μl of P. acnes BHI broth culture is added [culture turbidity adjusted against 0.5 McFarland standard (approx 1.5×10^8), and further diluted 100-fold with sterile BHI broth]. […]
(§2) Plates are incubated at 37° C. for 48-72 hrs under anaerobic condition. The plate is read under Bio-Rad plate reader @ 595 nm for optical density to generate the dose-response curves. The MIC of the test compound is recorded by addition of Alamar blue dye.
BHI broth and BHI agar media were prepared as per the manufacturer's instruction and autoclaved at 121° C. for 15 minutes. […] Plate is visualized for bacterial inhibitions and MIC values of the tested samples are determined. […]

[4] = test system: P. acnes CCARM 9010; assay: MIC by micro broth dilution (Alamar blue), clindamycin-resistant/nonresponsive P. acnes; assay type: cell-based, Propionibacterium acnes; conditions: clindamycin-nonresponsive CCARM 9010
Experimental: as §1
P. acnes (MTCC 3297, MTCC 1951& CCARM 9010) are cultured in Brain Heart Infusion (BHI) Broth at 37° C. for 48-72 h under anaerobic condition. The test compounds/formulations are initially diluted with suitable solvent and further diluted with BHI broth to get the required concentrations. Samples (100 μl) of different concentrations (prepared by serial dilution) are added to 96-well plate. To the wells, 100 μl of P. acnes BHI broth culture is added [culture turbidity adjusted against 0.5 McFarland standard (approx 1.5×10^8), and further diluted 100-fold with sterile BHI broth]. In addition Growth Control and Sterility Control are created using 100 μl each of P. acnes BHI broth culture and plain BHI broth, respectively.
as §2

Structure (SMILES): CCC[C@@H]1C[C@@H](C(=O)N[C@@H]([C@H]2O[C@H](SC)[C@H](O)[C@@H](O)[C@H]2O)[C@H](C)Cl)N(C)C1 [Clindamycin]
- MPC ([1]; P. acnes, 10^10 cells inoculum): 0.13 µg/mL
- MPC/MIC ([1]; ratio against P. acnes): 6.5
- MIC ([2]; P. acnes strain V2-9): < 0.03 µg/mL
- MIC ([2]; P. acnes strain V2-10): < 0.03 µg/mL
- MIC ([2]; P. acnes strain V3-9): < 0.03 µg/mL
- MIC ([2]; P. acnes strain V3-10): < 0.03 µg/mL
- MIC ([2]; P. acnes strain V4-6): < 0.03 µg/mL
- MIC ([2]; P. acnes strain V4-8): < 0.03 µg/mL
- MIC ([2]; P. acnes strain V4-13): < 0.03 µg/mL
- MIC ([2]; P. acnes strain V5-2): < 0.03 µg/mL
- MIC ([2]; P. acnes strain V5-5): < 0.03 µg/mL
- MIC ([2]; P. acnes strain V5-7): < 0.03 µg/mL
- MIC ([2]; P. acnes strain V6-5): < 0.03 µg/mL
- MIC ([2]; P. acnes strain V6-6): < 0.03 µg/mL
- MIC ([2]; P. acnes strain V6-7): < 0.03 µg/mL
- MIC ([2]; P. acnes strain V7-3): < 0.03 µg/mL
- MIC ([2]; P. acnes strain V7-4): < 0.03 µg/mL
- MIC ([2]; P. acnes strain V7-14): < 0.03 µg/mL
- MIC ([2]; P. acnes strain V9-6E): < 0.13 µg/mL
- MIC ([2]; P. acnes strain V12-2E): < 0.13 µg/mL
- MIC ([2]; P. acnes strain V13-3E): < 0.13 µg/mL
- MIC ([2]; P. acnes strain V14-2E): < 0.13 µg/mL
- MIC ([2]; P. acnes strain V15B-1E): < 0.13 µg/mL
- MIC ([2]; P. acnes strain V17-3E): < 0.13 µg/mL
- MIC ([2]; P. acnes strain V18-4E): < 0.13 µg/mL
- MIC ([2]; P. acnes strain V19-2E): < 0.13 µg/mL
- MIC ([2]; P. acnes strain V20-5E): < 0.13 µg/mL
- MIC [3]: 0.02 µg/mL (≈ 0.0471 µM)
- Activity / bacterial killing, dose response curve (in words) [4]: no effect
